Results on one sequence are retold here after publication PMC10277598.

Amino acid sequences for entries named in this document (tags omitted). A change or cut given only in a name is not applied to a line headed by its entry.
UniProt P69913: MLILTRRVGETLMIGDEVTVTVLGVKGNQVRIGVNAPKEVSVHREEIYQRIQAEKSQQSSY

For at least one entry, the source does not settle the construct or the ends of the probe.

Data set [1] deals with CsrA-His6 (UniProt P69913). The experiment in a line: EMSA. The conditions noted are these: 10 mM MgCl2, apparent Kd, linear regression (54.7 nM in Fig. S5); 0.5 nM labeled RNA, 0-400 nM CsrA, 10 mM MgCl2, 100 mM KCl, 32.5 ng total yeast RNA, 20 mM DTT, 7.5% glycerol, 4 U SUPERasin, 37 C 30 min; native PAGE in 1X TBE; recombinant protein; protein details: His6 (C-terminal by name); label: 5'-32P (binding), unlabeled as competitor; probe letters rebuilt from the primers and the genome; part of a longer molecule. A general note: Mobility shift assays separate free from complexed probe on a gel.

Data set [2] concerns the target CsrA-His6 (UniProt P69913). The experiment in a line: competition with a labelled probe. Particulars: unlabeled hflK RNA competes with labeled hflK RNA; 0.5 nM labeled RNA, 0-400 nM CsrA, 10 mM MgCl2, 100 mM KCl, 32.5 ng total yeast RNA, 20 mM DTT, 7.5% glycerol, 4 U SUPERasin, 37 C 30 min; native PAGE in 1X TBE; recombinant protein; protein details: His6 (C-terminal by name); label: 5'-32P (binding), unlabeled as competitor; probe letters rebuilt from the primers and the genome; part of a longer molecule.

Regarding “ACGGCGUAGCGUCUGAAGCGUGGAGUCAUAUCCUCUGGCGUCGAAAGACAACAGGGAUCACCGCAUAACAAAUAUGGAGCACAAACAUGGCGUGGAAUCAGCCCGGUAAUAACGGACAAGACCGCGACCCGUGG [hflK leader RNA (-86 to +48)]”, in the data set with CsrA-His6 [1], the Kd was 55 nM. Moreover, the binding result in the data set with CsrA-His6 [2] was “binds”.
